Experiment in all cases: glycan array binding signal (z-score within array); higher = stronger binding
Holding throughout (conditions): glycan notation: IUPAC condensed, linker removed

The target in assay [1] is Gal(b1-4)GlcNAc(b1-2)[Gal(b1-4)GlcNAc(b1-6)]Man(a1-6)[GlcNAc(b1-4)][Gal(b1-4)GlcNAc(b1-2)Man(a1-3)]Man(b1-4)GlcNAc(b1-4)GlcNAc. The procedure, abridged: (§1)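 Glycan array data came from 3228 arrays in the Consortium for Functional Glycomics database, and only arrays with an available protein sequence were kept. Glycan names were put into IUPAC-condensed notation, and columns mapping to the same glycan were averaged. The binding signal is a within-array Z-score, averaged across arrays of one protein sequence run at different concentrations or buffers and across linkers. A negative Z-score can be read as non-binding.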

For assay [2], the target named is Gal(b1-4)GlcNAc(b1-2)[Gal(b1-4)GlcNAc(b1-6)]Man(a1-6)[GlcNAc(b1-4)][Gal(b1-4)GlcNAc(b1-2)[Gal(b1-4)GlcNAc(b1-4)]Man(a1-3)]Man(b1-4)GlcNAc(b1-4)[Fuc(a1-6)]GlcNAc. The method, boiled down: as §1
The target in assay [3] is Gal(b1-4)GlcNAc(b1-3)Gal(b1-3)GalNAc. The method, boiled down:
as §1

Assay [4] deals with Gal(b1-4)GlcNAc(b1-3)Gal(b1-3)GlcNAc. The procedure, abridged: as §1
Assay [5] concerns the target Gal(b1-4)GlcNAc(b1-3)Gal(b1-4)Glc. The procedure, abridged: as §1
The target in assay [6] is Gal(b1-4)GlcNAc(b1-3)Gal(b1-4)GlcNAc. The procedure, abridged: as §1
The target of assay [7] is Gal(b1-4)GlcNAc(b1-3)Gal(b1-4)GlcNAc(b1-2)Man(a1-3)[Gal(b1-4)GlcNAc(b1-3)Gal(b1-4)GlcNAc(b1-2)Man(a1-6)]Man(b1-4)GlcNAc(b1-4)GlcNAc. The procedure, abridged: as §1
In assay [8] the target is Gal(b1-4)GlcNAc(b1-3)Gal(b1-4)GlcNAc(b1-2)Man(a1-3)[Gal(b1-4)GlcNAc(b1-3)Gal(b1-4)GlcNAc(b1-2)Man(a1-6)]Man(b1-4)GlcNAc(b1-4)[Fuc(a1-6)]GlcNAc. The method, boiled down:
as §1

Assay [9] addresses Gal(b1-4)GlcNAc(b1-3)Gal(b1-4)GlcNAc(b1-2)[Gal(b1-4)GlcNAc(b1-3)Gal(b1-4)GlcNAc(b1-6)]Man(a1-6)[Gal(b1-4)GlcNAc(b1-3)Gal(b1-4)GlcNAc(b1-2)Man(a1-3)]Man(b1-4)GlcNAc(b1-4)GlcNAc. The method, boiled down: as §1
Assay [10] concerns the target Gal(b1-4)GlcNAc(b1-3)Gal(b1-4)GlcNAc(b1-2)[Gal(b1-4)GlcNAc(b1-3)Gal(b1-4)GlcNAc(b1-6)]Man(a1-6)[Gal(b1-4)GlcNAc(b1-3)Gal(b1-4)GlcNAc(b1-2)Man(a1-3)]Man(b1-4)GlcNAc(b1-4)[Fuc(a1-6)]GlcNAc. The procedure, abridged:
as §1

Assay [11] deals with Gal(b1-4)GlcNAc(b1-3)Gal(b1-4)GlcNAc(b1-3)Gal(b1-4)GlcNAc. The method, boiled down: as §1
Assay [12] has as its target Gal(b1-4)GlcNAc(b1-3)Gal(b1-4)GlcNAc(b1-3)Gal(b1-4)GlcNAc(b1-2)Man(a1-3)[Gal(b1-4)GlcNAc(b1-3)Gal(b1-4)GlcNAc(b1-3)Gal(b1-4)GlcNAc(b1-2)Man(a1-6)]Man(b1-4)GlcNAc(b1-4)GlcNAc. The procedure, abridged:
as §1

Assay [13] addresses Gal(b1-4)GlcNAc(b1-3)Gal(b1-4)GlcNAc(b1-3)Gal(b1-4)GlcNAc(b1-2)Man(a1-3)[Gal(b1-4)GlcNAc(b1-3)Gal(b1-4)GlcNAc(b1-3)Gal(b1-4)GlcNAc(b1-2)Man(a1-6)]Man(b1-4)GlcNAc(b1-4)[Fuc(a1-6)]GlcNAc. The procedure, abridged:
as §1

Assay [14] has as its target Gal(b1-4)GlcNAc(b1-3)Gal(b1-4)GlcNAc(b1-3)Gal(b1-4)GlcNAc(b1-2)[Gal(b1-4)GlcNAc(b1-3)Gal(b1-4)GlcNAc(b1-3)Gal(b1-4)GlcNAc(b1-6)]Man(a1-6)[Gal(b1-4)GlcNAc(b1-3)Gal(b1-4)GlcNAc(b1-3)Gal(b1-4)GlcNAc(b1-2)Man(a1-3)]Man(b1-4)GlcNAc(b1-4)[Fuc(a1-6)]GlcNAc. The procedure, abridged:
as §1

The target of assay [15] is Gal(b1-4)GlcNAc(b1-3)Gal(b1-4)GlcNAc(b1-3)Gal(b1-4)GlcNAc(b1-3)Gal(b1-4)GlcNAc(b1-2)Man(a1-3)[Gal(b1-4)GlcNAc(b1-3)Gal(b1-4)GlcNAc(b1-3)Gal(b1-4)GlcNAc(b1-3)Gal(b1-4)GlcNAc(b1-2)Man(a1-6)]Man(b1-4)GlcNAc(b1-4)GlcNAc. The procedure, abridged: as §1
Assay [16] deals with Gal(b1-4)GlcNAc(b1-3)Gal(b1-4)GlcNAc(b1-3)Gal(b1-4)GlcNAc(b1-3)Gal(b1-4)GlcNAc(b1-2)Man(a1-3)[Gal(b1-4)GlcNAc(b1-3)Gal(b1-4)GlcNAc(b1-3)Gal(b1-4)GlcNAc(b1-3)Gal(b1-4)GlcNAc(b1-2)Man(a1-6)]Man(b1-4)GlcNAc(b1-4)[Fuc(a1-6)]GlcNAc. The method, boiled down:
as §1

Assay [17] has as its target Gal(b1-4)GlcNAc(b1-3)Gal(b1-4)GlcNAc(b1-3)Gal(b1-4)GlcNAc(b1-3)Gal(b1-4)GlcNAc(b1-2)[Gal(b1-4)GlcNAc(b1-3)Gal(b1-4)GlcNAc(b1-3)Gal(b1-4)GlcNAc(b1-3)Gal(b1-4)GlcNAc(b1-6)]Man(a1-6)[Gal(b1-4)GlcNAc(b1-3)Gal(b1-4)GlcNAc(b1-3)Gal(b1-4)GlcNAc(b1-3)Gal(b1-4)GlcNAc(b1-2)Man(a1-3)]Man(b1-4)GlcNAc(b1-4)[Fuc(a1-6)]GlcNAc. The procedure, abridged:
as §1

Assay [18] deals with Gal(b1-4)GlcNAc(b1-3)Gal(b1-4)GlcNAc(b1-3)Gal(b1-4)GlcNAc(b1-3)Gal(b1-4)GlcNAc(b1-3)Gal(b1-4)GlcNAc(b1-2)Man(a1-3)[Gal(b1-4)GlcNAc(b1-3)Gal(b1-4)GlcNAc(b1-3)Gal(b1-4)GlcNAc(b1-3)Gal(b1-4)GlcNAc(b1-3)Gal(b1-4)GlcNAc(b1-2)Man(a1-6)]Man(b1-4)GlcNAc(b1-4)GlcNAc. The procedure, abridged: as §1
The target of assay [19] is Gal(b1-4)GlcNAc(b1-3)Gal(b1-4)GlcNAc(b1-3)Gal(b1-4)GlcNAc(b1-3)Gal(b1-4)GlcNAc(b1-3)Gal(b1-4)GlcNAc(b1-2)Man(a1-3)[Gal(b1-4)GlcNAc(b1-3)Gal(b1-4)GlcNAc(b1-3)Gal(b1-4)GlcNAc(b1-3)Gal(b1-4)GlcNAc(b1-3)Gal(b1-4)GlcNAc(b1-2)Man(a1-6)]Man(b1-4)GlcNAc(b1-4)[Fuc(a1-6)]GlcNAc. The method, boiled down: as §1
In assay [20] the target is Gal(b1-4)GlcNAc(b1-3)Gal(b1-4)GlcNAc(b1-3)Gal(b1-4)GlcNAc(b1-3)Gal(b1-4)GlcNAc(b1-3)Gal(b1-4)GlcNAc(b1-2)[Gal(b1-4)GlcNAc(b1-3)Gal(b1-4)GlcNAc(b1-3)Gal(b1-4)GlcNAc(b1-3)Gal(b1-4)GlcNAc(b1-3)Gal(b1-4)GlcNAc(b1-6)]Man(a1-6)[Gal(b1-4)GlcNAc(b1-3)Gal(b1-4)GlcNAc(b1-3)Gal(b1-4)GlcNAc(b1-3)Gal(b1-4)GlcNAc(b1-3)Gal(b1-4)GlcNAc(b1-2)Man(a1-3)]Man(b1-4)GlcNAc(b1-4)[Fuc(a1-6)]GlcNAc. The procedure, abridged:
as §1

In assay [21] the target is Gal(b1-4)GlcNAc(b1-3)Gal(b1-4)GlcNAc(b1-3)Gal(b1-4)GlcNAc(b1-3)Gal(b1-4)GlcNAc(b1-3)Gal(b1-4)GlcNAc(b1-3)Gal(b1-4)GlcNAc(b1-2)Man(a1-3)[Gal(b1-4)GlcNAc(b1-3)Gal(b1-4)GlcNAc(b1-3)Gal(b1-4)GlcNAc(b1-3)Gal(b1-4)GlcNAc(b1-3)Gal(b1-4)GlcNAc(b1-3)Gal(b1-4)GlcNAc(b1-2)Man(a1-6)]Man(b1-4)GlcNAc(b1-4)GlcNAc. The procedure, abridged: as §1
In assay [22] the target is Gal(b1-4)GlcNAc(b1-3)Gal(b1-4)GlcNAc(b1-3)GalNAc. The procedure, abridged: as §1
Assay [23] has as its target Gal(b1-4)GlcNAc(b1-3)Gal(b1-4)GlcNAc(b1-3)[Gal(b1-4)GlcNAc(b1-3)Gal(b1-4)GlcNAc(b1-6)]GalNAc. The method, boiled down:
as §1

The other results are listed elsewhere or left out.

B1: Aap arpt (Staphylococcus epidermidis) (protein)
chain: NNEAPQMSSTLQAEEGSNAEAPQSEPTKAEEGGNAEAAQSEPTKAEEGGNAEAPQSEPTKAEEGGNAEAAQSEPTKTEEGSNVKAAQSEPTKAEEGSNAEAPQSEPTKTEEGSNAKAAQSEPTKAEEGGNAEAAQSEPTKTEEGSNAEAPQSEPTKAEEGGYAEAPQSEPTKTEEGGNAEAPNVPTIKA
On to B1, for which the “glycan array binding signal (z-score)” value in [1] was 0.052; in [2], -1.73; in [3], 1.03; in [4], -0.528; in assay [5], 0.371; in [6], 0.925. Further, the “glycan array binding signal (z-score)” value in [7] was found to be 0.902; in assay [8], 1.35; in assay [9], 0.268; in assay [10] it was 1.7; in [11], 0.873; in [12], 0.851. Further, the “glycan array binding signal (z-score)” value in assay [13] was 2.73; in assay [14], 1.86; in assay [15], 0.057; in [16], 0.176; in [17], 0.939; in [18], -0.5. Also, the “glycan array binding signal (z-score)” value in assay [19] is 0.848; in assay [20], 1.48; in [21] it was 0.421; in assay [22], 1.1; in [23], 2.68.
